According to publication doi:10.1101/2023.01.23.525126:
Results are given in words; binding and its absence hold for the method and conditions named. Binding seen in cells or lysates may run through a third protein. Some results given as binding are weak or reduced against the parent protein; the word gives no strength. Sequences can lack the tags named with a protein.

The chains behind the UniProt entries cited, without tags or fusion partners. Residues count along the entry.
UniProt Q00960, residues 27-1482: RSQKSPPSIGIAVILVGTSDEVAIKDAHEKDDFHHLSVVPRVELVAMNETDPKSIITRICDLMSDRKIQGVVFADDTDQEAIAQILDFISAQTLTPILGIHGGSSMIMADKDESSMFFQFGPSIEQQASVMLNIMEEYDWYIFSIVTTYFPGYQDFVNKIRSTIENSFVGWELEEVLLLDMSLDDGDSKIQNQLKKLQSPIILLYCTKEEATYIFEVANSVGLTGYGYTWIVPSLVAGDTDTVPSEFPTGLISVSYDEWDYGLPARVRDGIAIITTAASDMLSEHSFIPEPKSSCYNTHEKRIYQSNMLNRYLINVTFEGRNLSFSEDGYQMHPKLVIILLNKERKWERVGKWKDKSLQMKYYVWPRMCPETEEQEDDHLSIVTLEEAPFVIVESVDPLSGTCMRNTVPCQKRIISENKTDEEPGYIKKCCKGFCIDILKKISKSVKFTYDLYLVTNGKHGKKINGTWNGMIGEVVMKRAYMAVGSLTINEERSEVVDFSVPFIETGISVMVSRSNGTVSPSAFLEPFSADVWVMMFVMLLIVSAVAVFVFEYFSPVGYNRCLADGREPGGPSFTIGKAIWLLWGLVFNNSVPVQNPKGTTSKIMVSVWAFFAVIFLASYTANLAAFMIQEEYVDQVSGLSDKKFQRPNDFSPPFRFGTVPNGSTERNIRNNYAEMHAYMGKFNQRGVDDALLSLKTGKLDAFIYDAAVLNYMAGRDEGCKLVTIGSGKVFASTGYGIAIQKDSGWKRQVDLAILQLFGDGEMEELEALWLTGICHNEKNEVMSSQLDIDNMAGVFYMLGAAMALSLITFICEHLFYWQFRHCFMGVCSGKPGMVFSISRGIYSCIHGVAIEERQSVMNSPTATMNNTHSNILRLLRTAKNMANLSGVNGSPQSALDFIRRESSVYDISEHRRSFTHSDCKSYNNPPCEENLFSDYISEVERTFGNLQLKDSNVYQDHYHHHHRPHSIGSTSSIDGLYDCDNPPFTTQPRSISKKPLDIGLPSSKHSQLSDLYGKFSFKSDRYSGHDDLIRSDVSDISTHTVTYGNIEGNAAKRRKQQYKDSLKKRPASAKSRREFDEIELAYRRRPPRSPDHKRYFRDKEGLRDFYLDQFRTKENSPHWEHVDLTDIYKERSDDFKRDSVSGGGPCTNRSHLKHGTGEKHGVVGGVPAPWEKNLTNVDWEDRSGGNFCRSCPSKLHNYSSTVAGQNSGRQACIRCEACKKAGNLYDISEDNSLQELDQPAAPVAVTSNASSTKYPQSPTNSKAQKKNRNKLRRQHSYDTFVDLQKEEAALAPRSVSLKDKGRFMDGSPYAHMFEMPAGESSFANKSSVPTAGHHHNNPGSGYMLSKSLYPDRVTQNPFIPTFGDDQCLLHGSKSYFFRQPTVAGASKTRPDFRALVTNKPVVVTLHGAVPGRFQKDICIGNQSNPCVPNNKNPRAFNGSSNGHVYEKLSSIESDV

Molecular target: T1, DRACC1 (Disordered Region And Coiled-Coil Domain 1; FAM81A), DRACC1-FLAG (mouse) (UniProt Q3UXZ6)
T1 sequence: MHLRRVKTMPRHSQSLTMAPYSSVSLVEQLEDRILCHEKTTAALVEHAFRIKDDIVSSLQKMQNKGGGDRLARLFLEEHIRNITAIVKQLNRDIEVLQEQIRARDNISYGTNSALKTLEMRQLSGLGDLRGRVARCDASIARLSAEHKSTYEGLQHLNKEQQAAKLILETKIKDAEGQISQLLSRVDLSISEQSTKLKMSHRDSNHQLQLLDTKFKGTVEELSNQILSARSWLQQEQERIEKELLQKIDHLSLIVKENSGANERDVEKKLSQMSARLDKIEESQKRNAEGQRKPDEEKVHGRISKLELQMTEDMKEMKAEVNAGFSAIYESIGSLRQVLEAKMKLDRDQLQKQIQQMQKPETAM
Experiment: co-IP

binding: binds
Substance: GFP-GluN2B (pCI-EGFP-NR2b wt) (from UniProt Q00960 27-1482) (receptor)
